Reference: PubChem BioAssay AID1159578 (Peter MacCallum Cancer Centre, 2015)

- Purpose: 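Knock-downs that alter how fast lymphatic endothelial cells migrate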 (primary screen)
- System: human lymphatic endothelial cells
- Reagent: siRNA pool against human genes, 40 nM
- Time to read-out: 48 h after transfection
- Measured: 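Cells stained with dye and imaged after a scratch; covered wound area and nuclei counted, duplicates averaged, migration set against mock wells and turned into a robust z-score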
- Direction: migration robust z-score: higher = faster migration into the scratch; migration relative to mock: higher = more scratch area covered than mock; nuclei per well: higher = more cells in the well
- Hit rule: 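Migration changed when robust z exceeds 2 or falls below -2 and mean nuclei number is at least 3300; otherwise not called changed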
- Calls: active = migration changed; inactive = no migration change, or too few cells
Shown is an unselected part of about 18,000 deposited reagents. About 1,030 of all reagents (5.7%) were called active. 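Inactive calls also include pools with fewer than 3300 nuclei, whose migration was not assessed.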 Raw values vary from plate to plate and are shown uncorrected. Entries without a mark were called inactive. Reagent sequences are not shown.

target | migration robust z-score | migration class with cell-count check | migration relative to mock | nuclei per well, duplicate mean
ARL1 (ARF like GTPase 1) | -1.06 | migration z between -2 and 2; enough cells | 0.6 | 5683
TNFSF4 (TNF superfamily member 4) | 1.18 | migration z between -2 and 2; enough cells | 1.19 | 5832
TANK (TRAF family member associated NFKB activator) | 2 | migration z between -2 and 2; enough cells | 1.4 | 5827
C20orf144 (chromosome 20 open reading frame 144) | -0.54 | under 3300 nuclei; migration not judged | 0.75 | 3203
PITX3 (paired like homeodomain 3) | -0.24 | migration z between -2 and 2; enough cells | 0.76 | 6120
ADAMTSL1 (ADAMTS like 1) | 0.31 | migration z between -2 and 2; enough cells | 0.86 | 5568
FGFBP1 (fibroblast growth factor binding protein 1) | 0.23 | migration z between -2 and 2; enough cells | 0.94 | 5684
HAMP (hepcidin antimicrobial peptide) | 0.38 | migration z between -2 and 2; enough cells | 0.99 | 6056
SCML2 (Scm polycomb group protein like 2) | -0.08 | migration z between -2 and 2; enough cells | 0.79 | 5424
CAPG (capping actin protein, gelsolin like) | -0.32 | migration z between -2 and 2; enough cells | 0.8 | 5616
KRT32 (keratin 32) | 2.58 (active) | migration z above 2; enough cells | 1.55 | 5900
TAF9B (TATA-box binding protein associated factor 9b) | 0.26 | migration z between -2 and 2; enough cells | 0.86 | 4657
SNAPIN (SNAP associated protein) | -0.02 | migration z between -2 and 2; enough cells | 0.88 | 4940
EFNB1 (ephrin B1) | -1.31 | migration z between -2 and 2; enough cells | 0.55 | 5220
PEDS1-UBE2V1 (PEDS1-UBE2V1 readthrough) | 1.4 | migration z between -2 and 2; enough cells | 1.07 | 5220
DNAL1 (dynein axonemal light chain 1) | 0.52 | migration z between -2 and 2; enough cells | 1.02 | 6632
SDE2 (spliceosome associated SDE2) | -1.38 | migration z between -2 and 2; enough cells | 0.53 | 6843
SUCLA2 (succinate-CoA ligase ADP-forming subunit beta) | 0.94 | migration z between -2 and 2; enough cells | 0.98 | 5948
RAP1GDS1 (Rap1 GTPase-GDP dissociation stimulator 1) | -0.54 | migration z between -2 and 2; enough cells | 0.74 | 4910
SLC22A6 | -1.89 | migration z between -2 and 2; enough cells | 0.44 | 6041
ZSCAN21 (zinc finger and SCAN domain containing 21) | -2.94 | under 3300 nuclei; migration not judged | 0.12 | 2988
TSNARE1 (t-SNARE domain containing 1) | -0.06 | migration z between -2 and 2; enough cells | 0.88 | 6402
RABGGTB (Rab geranylgeranyltransferase subunit beta) | -0.54 | migration z between -2 and 2; enough cells | 0.75 | 6610
CREG1 (cellular repressor of E1A stimulated genes 1) | 0.72 | migration z between -2 and 2; enough cells | 0.94 | 4778
GATA5 (GATA binding protein 5) | 0.5 | migration z between -2 and 2; enough cells | 0.9 | 5554
DUSP28 (dual specificity phosphatase 28) | 0.88 | migration z between -2 and 2; enough cells | 1.12 | 6030
OR1M1 (olfactory receptor family 1 subfamily M member 1) | 1.89 | migration z between -2 and 2; enough cells | 1.38 | 5937
POU3F3 (POU class 3 homeobox 3) | -0.24 | migration z between -2 and 2; enough cells | 0.82 | 6578
TBCE (tubulin folding cofactor E) | 1 | migration z between -2 and 2; enough cells | 1.15 | 6902
GPR4 (G protein-coupled receptor 4) | 0.83 | migration z between -2 and 2; enough cells | 0.96 | 4906
SKAP2 (src kinase associated phosphoprotein 2) | -3.08 (active) | migration z below -2; enough cells | 0.09 | 6258
AFAP1 (actin filament associated protein 1) | 0.64 | migration z between -2 and 2; enough cells | 1.05 | 4290
MEOX1 (mesenchyme homeobox 1) | 0.21 | migration z between -2 and 2; enough cells | 0.84 | 6924
MBLAC1 (metallo-beta-lactamase domain containing 1) | -0.44 | migration z between -2 and 2; enough cells | 0.77 | 6115
ZNF830 (zinc finger protein 830) | -0.34 | migration z between -2 and 2; enough cells | 0.8 | 4248
PSG6 (pregnancy specific beta-1-glycoprotein 6) | -0.17 | migration z between -2 and 2; enough cells | 0.84 | 4330
ZNF28 (zinc finger protein 28) | 1.07 | migration z between -2 and 2; enough cells | 1.17 | 5930
MAP4K1 (mitogen-activated protein kinase kinase kinase kinase 1) | -1.5 | migration z between -2 and 2; enough cells | 0.52 | 5329
PABPN1 (poly(A) binding protein nuclear 1) | 0.2 | migration z between -2 and 2; enough cells | 0.94 | 5792
TCEA3 (transcription elongation factor A3) | -1.14 | migration z between -2 and 2; enough cells | 0.58 | 4395
RALYL (RALY RNA binding protein like) | -0.01 | migration z between -2 and 2; enough cells | 0.88 | 6192
CLCA2 (chloride channel accessory 2) | 0.75 | migration z between -2 and 2; enough cells | 0.95 | 5554
PTGER1 (prostaglandin E receptor 1) | 0.05 | migration z between -2 and 2; enough cells | 0.82 | 6128
TRAF3 (TNF receptor associated factor 3) | 0.5 | migration z between -2 and 2; enough cells | 0.9 | 4867
TMEM132E (transmembrane protein 132E) | -3.13 (active) | migration z below -2; enough cells | 0.08 | 5057
CRYGA (crystallin gamma A) | 0.44 | migration z between -2 and 2; enough cells | 1 | 4570
TMEM37 (transmembrane protein 37) | -0.05 | migration z between -2 and 2; enough cells | 0.8 | 5981
GRSF1 (G-rich RNA sequence binding factor 1) | 0.79 | migration z between -2 and 2; enough cells | 1.09 | 4232
DYRK2 (dual specificity tyrosine phosphorylation regulated kinase 2) | -0.64 | migration z between -2 and 2; enough cells | 0.68 | 3747
SPANXA1 | -0.48 | migration z between -2 and 2; enough cells | 0.76 | 4692
NDUFB8 (NADH:ubiquinone oxidoreductase subunit B8) | 0.19 | migration z between -2 and 2; enough cells | 0.94 | 7210
HLA-L (major histocompatibility complex, class I, L (pseudogene)) | 0.24 | migration z between -2 and 2; enough cells | 0.94 | 5832
IDS (iduronate 2-sulfatase) | -0.9 | migration z between -2 and 2; enough cells | 0.63 | 3585
COL7A1 (collagen type VII alpha 1 chain) | 1.33 | migration z between -2 and 2; enough cells | 1.23 | 4166
DYNLRB1 (dynein light chain roadblock-type 1) | -0.32 | migration z between -2 and 2; enough cells | 0.74 | 4305
DUSP26 (dual specificity phosphatase 26) | -1.38 | migration z between -2 and 2; enough cells | 0.52 | 3998
TFF2 (trefoil factor 2) | 0.66 | migration z between -2 and 2; enough cells | 1.06 | 5911
